Data taken from publication PMC9508841.
These are yes or no findings as the source states them, for the method shown. Some binding calls cover weakened binding; strength is not graded here.

Sequences of proteins named here, by UniProt entry; tags and fusion partners are left off.
UniProt P51818: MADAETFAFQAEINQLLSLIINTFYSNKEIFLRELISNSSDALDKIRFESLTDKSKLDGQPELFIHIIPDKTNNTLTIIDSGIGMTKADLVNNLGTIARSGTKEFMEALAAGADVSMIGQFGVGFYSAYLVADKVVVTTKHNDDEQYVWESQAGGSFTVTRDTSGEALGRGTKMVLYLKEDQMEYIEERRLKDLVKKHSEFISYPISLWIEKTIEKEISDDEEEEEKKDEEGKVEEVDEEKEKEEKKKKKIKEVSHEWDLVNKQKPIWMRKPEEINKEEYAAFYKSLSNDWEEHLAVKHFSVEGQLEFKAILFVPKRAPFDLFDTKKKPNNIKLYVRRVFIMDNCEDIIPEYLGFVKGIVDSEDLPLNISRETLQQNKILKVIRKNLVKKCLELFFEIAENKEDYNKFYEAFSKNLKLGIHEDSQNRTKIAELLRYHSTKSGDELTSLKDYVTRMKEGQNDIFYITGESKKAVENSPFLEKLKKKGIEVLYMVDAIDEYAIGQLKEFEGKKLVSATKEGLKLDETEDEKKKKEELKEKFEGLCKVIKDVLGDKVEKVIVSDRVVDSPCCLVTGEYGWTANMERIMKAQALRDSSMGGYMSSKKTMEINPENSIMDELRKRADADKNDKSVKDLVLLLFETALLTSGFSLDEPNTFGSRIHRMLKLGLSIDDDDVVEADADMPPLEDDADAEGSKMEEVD

What was measured:
[1] = target: T1, Arabidopsis thaliana ARGONAUTE10 (Arabidopsis thaliana) (UniProt Q9XGW1); assay: pull-down; without ATP; details in Supplementary Figure S8D,E (not shown); both purified
T1 sequence: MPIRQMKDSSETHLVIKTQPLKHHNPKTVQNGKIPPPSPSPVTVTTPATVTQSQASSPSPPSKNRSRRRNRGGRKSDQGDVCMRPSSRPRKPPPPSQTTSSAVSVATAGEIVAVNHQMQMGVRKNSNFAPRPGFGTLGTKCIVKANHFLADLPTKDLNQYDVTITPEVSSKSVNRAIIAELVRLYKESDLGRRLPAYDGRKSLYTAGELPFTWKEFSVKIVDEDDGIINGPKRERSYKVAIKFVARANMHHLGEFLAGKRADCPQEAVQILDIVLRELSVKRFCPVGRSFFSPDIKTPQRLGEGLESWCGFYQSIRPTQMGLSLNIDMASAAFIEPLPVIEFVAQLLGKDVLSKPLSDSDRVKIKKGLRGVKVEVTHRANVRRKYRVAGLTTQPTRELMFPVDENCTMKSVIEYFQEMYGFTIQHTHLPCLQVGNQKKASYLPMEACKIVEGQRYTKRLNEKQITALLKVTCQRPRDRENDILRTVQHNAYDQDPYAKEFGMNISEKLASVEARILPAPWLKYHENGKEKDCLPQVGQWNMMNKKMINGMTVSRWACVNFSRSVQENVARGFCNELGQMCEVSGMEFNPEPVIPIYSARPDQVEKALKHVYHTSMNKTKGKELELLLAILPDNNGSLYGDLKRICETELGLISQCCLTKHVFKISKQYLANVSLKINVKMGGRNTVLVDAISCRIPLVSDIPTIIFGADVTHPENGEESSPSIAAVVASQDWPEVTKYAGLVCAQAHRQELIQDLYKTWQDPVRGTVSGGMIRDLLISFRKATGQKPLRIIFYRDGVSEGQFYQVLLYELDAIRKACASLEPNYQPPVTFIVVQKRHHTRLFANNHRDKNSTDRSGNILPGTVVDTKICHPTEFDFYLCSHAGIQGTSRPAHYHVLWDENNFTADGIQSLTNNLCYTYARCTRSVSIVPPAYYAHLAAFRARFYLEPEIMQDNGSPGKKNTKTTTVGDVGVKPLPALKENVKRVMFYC

[2] = target: T1, Arabidopsis thaliana ARGONAUTE10 (Arabidopsis thaliana); assay: pull-down; immobilized AtAGO10 pulls down HSP70 and HSP90, also both simultaneously; details in Supplementary Figure S8B-E (not shown); both purified

binding [1]: binds | binding [2]: binds
Substance: AtHsp90.3 (AT5G56010.1) (from UniProt P51818 1-699)
